Results are given in words; binding and its absence hold for the method and conditions named. For some assays here: Binding seen in cells or lysates may run through a third protein. Some results given as binding are weak or reduced against the parent protein; the word gives no strength. For some assays here: Where a sequence is shown, tags or fusion partners need not be part of it.

Experiment [1] has as its target Snf4-CV (Snf4 tagged C-terminally with the C-terminal segment of yEmVenus) (C. albicans). The experiment in a line: split reporter; BiFC with split yEmVenus in C. albicans SN152, MET3 promoter; microplate reader, fluorescence normalised to OD600 and to the autofluorescence of a strain with backbone vectors; low-fluorescence SC -methionine -cysteine, 2% glucose; exponential phase.

For experiment [2] the target is unchanged. The experiment in a line: split reporter; BiFC with split yEmVenus in C. albicans SN152, MET3 promoter; confocal microscopy of living cells in the midexponential phase, SC -methionine -cysteine, 2% glucose (Bcy1-Tpk strains at 37°); fluorescence intensity per pixel quantified.
For experiment [3], the target named is Snf4, Candida two-hybrid construct (full-length SNF4) (C. albicans). Put plainly: two-hybrid; Candida two-hybrid in C. albicans SC2H3, vectors pC2HB (bait) and pC2HP (prey), MET3 promoter; scored by growth on medium lacking methionine, cysteine and histidine; 3 d at 30°.
The target of experiment [4] is T1, Bcy1-NV (Bcy1 tagged C-terminally with the N-terminal segment of yEmVenus) (C. albicans) (UniProt Q9HEW1).
T1 sequence: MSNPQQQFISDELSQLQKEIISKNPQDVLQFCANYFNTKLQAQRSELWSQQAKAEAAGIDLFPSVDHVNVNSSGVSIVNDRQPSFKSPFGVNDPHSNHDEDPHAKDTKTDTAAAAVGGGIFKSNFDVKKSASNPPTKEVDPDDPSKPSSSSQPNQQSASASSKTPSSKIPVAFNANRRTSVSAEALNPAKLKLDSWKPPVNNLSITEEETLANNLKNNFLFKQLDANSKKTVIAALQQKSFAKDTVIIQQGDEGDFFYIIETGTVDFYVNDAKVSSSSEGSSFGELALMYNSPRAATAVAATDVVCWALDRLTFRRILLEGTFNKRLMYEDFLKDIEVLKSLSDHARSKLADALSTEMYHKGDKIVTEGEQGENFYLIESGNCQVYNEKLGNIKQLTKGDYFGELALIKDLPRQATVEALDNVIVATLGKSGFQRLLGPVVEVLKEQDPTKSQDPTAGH
The experiment in a line: split reporter; BiFC with split yEmVenus in C. albicans SN152, MET3 promoter; confocal microscopy of living cells in the midexponential phase, SC -methionine -cysteine, 2% glucose (Bcy1-Tpk strains at 37°); fluorescence intensity per pixel quantified.

The target in experiment [5] is T2, Bcy1, Candida two-hybrid construct (C. albicans) (UniProt Q9HEW1).
T2 sequence: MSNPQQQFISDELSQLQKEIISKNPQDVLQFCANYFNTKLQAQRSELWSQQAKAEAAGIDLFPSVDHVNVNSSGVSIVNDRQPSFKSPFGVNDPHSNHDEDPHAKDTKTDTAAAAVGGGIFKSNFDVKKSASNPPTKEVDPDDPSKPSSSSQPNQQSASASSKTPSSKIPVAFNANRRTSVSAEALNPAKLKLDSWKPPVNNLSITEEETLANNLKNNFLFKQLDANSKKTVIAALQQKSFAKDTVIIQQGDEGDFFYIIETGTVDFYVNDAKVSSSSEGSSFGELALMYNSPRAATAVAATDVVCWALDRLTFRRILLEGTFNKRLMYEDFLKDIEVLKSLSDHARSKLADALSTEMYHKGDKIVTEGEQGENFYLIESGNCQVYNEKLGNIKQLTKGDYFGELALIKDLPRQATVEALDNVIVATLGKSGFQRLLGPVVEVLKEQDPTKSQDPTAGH
Put plainly: two-hybrid; Candida two-hybrid in C. albicans SC2H3, vectors pC2HB (bait) and pC2HP (prey), MET3 promoter; scored by growth on medium lacking methionine, cysteine and histidine; 3 d at 30°.

B1: Kis1-NV (full-length Kis1 tagged C-terminally with the N-terminal segment of yEmVenus) (protein, UniProt Q59X47 1-412)
chain: MLSPKSTNQEAPATAPLDDINTTKDVSMVDVSKAEGENQQPPRRKSTIILTDEIDLDRMNIDNKESDKSNEQGDKMHIDRSLSNLNQQQHSQSSQSEPSQPEQQQQQQQQQQQQQQQPVAPDANIAVPVDIKWVQGGQKVYVTGSFTGWRKMIGLVKQPDDNFMITLGLPVGTHRFRFVVDNELRFSDFLPTATDQMGNFVNYIEITPENVQQHLLQEKEESNNESQQQELEKQQAKTGDKTSSQQASRRSSVSRSRSNSMWGLTNDDDDMGDGYSRYHDDESNALDEKTYQYIKDIPPIFTDPKVMEQYYVAIDKQSRNNNGQQQAWLHPPQLPPHLESVILNNFNNTENNSGALPIPNHVVLNHLATTSIKHNTLAVASIVRYKRKYLTQVLYAPLQQASSSSTTQEQQS
Regarding B1, the binding entry in experiment [1] and in experiment [2] was “binds” throughout.

B2: Kis1, Candida two-hybrid construct (full-length KIS1) (protein, UniProt Q59X47 1-412)
chain: MLSPKSTNQEAPATAPLDDINTTKDVSMVDVSKAEGENQQPPRRKSTIILTDEIDLDRMNIDNKESDKSNEQGDKMHIDRSLSNLNQQQHSQSSQSEPSQPEQQQQQQQQQQQQQQQPVAPDANIAVPVDIKWVQGGQKVYVTGSFTGWRKMIGLVKQPDDNFMITLGLPVGTHRFRFVVDNELRFSDFLPTATDQMGNFVNYIEITPENVQQHLLQEKEESNNESQQQELEKQQAKTGDKTSSQQASRRSSVSRSRSNSMWGLTNDDDDMGDGYSRYHDDESNALDEKTYQYIKDIPPIFTDPKVMEQYYVAIDKQSRNNNGQQQAWLHPPQLPPHLESVILNNFNNTENNSGALPIPNHVVLNHLATTSIKHNTLAVASIVRYKRKYLTQVLYAPLQQASSSSTTQEQQS
Regarding B2, the binding entry in experiment [3] is on record as “binds”.

B3: Tpk1-CV (Tpk1 tagged C-terminally with the C-terminal segment of yEmVenus) (enzyme, UniProt Q5AP71 1-405)
chain: MTSMEPADTSIRSLNDINLQELANKQHQRNIYAQGSPTLEDSITSNGNDINNPNNNINKTNNNSNSSLSLTKKTSRHINKDTTTKGKYTLNDFQILRTLGTGSFGRVHLTRSIHNGRFYAMKVLKKQRVVQMKQIEHTNDERRMLKLAQHPFIIRMWGTFQDCHNLFMIMDYIEGGELFSLLRKSQRFPTPVAKFYAAEVFLAIEYLHSLDIIYRDLKPENILLDKNGHIKLTDFGFAKEVQDVTYTLCGTPDYIAPEVVATKPYNKSVDWWSFGILIFEMLTGYTPFYDPTPMKTYENILNGSITYPDYLPPDILDLLQKLIVKDLTQRLGNLQGGSDDVKNHPWFKEVIWERLLSRDIETPYEPPITSGVGDTSQFDRYPEDKDLDYGISGVEDPYRDQFQDF
With B3, the binding entry in experiment [4] was “binds”.

B4: Tpk1, Candida two-hybrid construct (enzyme, UniProt Q5AP71 1-405)
chain: MTSMEPADTSIRSLNDINLQELANKQHQRNIYAQGSPTLEDSITSNGNDINNPNNNINKTNNNSNSSLSLTKKTSRHINKDTTTKGKYTLNDFQILRTLGTGSFGRVHLTRSIHNGRFYAMKVLKKQRVVQMKQIEHTNDERRMLKLAQHPFIIRMWGTFQDCHNLFMIMDYIEGGELFSLLRKSQRFPTPVAKFYAAEVFLAIEYLHSLDIIYRDLKPENILLDKNGHIKLTDFGFAKEVQDVTYTLCGTPDYIAPEVVATKPYNKSVDWWSFGILIFEMLTGYTPFYDPTPMKTYENILNGSITYPDYLPPDILDLLQKLIVKDLTQRLGNLQGGSDDVKNHPWFKEVIWERLLSRDIETPYEPPITSGVGDTSQFDRYPEDKDLDYGISGVEDPYRDQFQDF
Turning to B4, the binding entry in experiment [5] is given as “binds”.

The record behind these values is paper PMC5633398.
